In ChEMBL document CHEMBL1141145, “A chiral benzoquinolizine-2-carboxylic acid arginine salt active against vancomycin-resistant Staphylococcus aureus” (J Med Chem, 2005):

Key:
physchem = conditions: octanol/water, pH 7.4
[1] = octanol/water, pH 2

In the case of `CCn1cc(C(=O)O)c(=O)c2cc(F)c(N3CCN(C)CC3)cc21` [PEFLOXACIN], the logD (physchem) is reported as 0.37 and the logD [1] is reported as -1.58.
